Measured values from patent US20060030054A1, “Fluorescent probe” (Daiichi Pure Chemicclas Co., LTD., of Tokyo, Japan, priority 2002, published 2006).
Read-outs that look alike come from different tables or passages of the source. For at least one compound, name, drawing or mass did not settle the structure.

Key:
[1] = Complex formation constant from fluorescence intensity change on addition of potassium; type: binding; conditions: 0.2 M Tris-hydrochloride buffer pH 7.5, potassium chloride, DMF 0.1%, compound 3 μM; read-out: Complex formation constant K^+
Protocol: (§1) Fluorescence intensity changes of the compound obtained in Example 5 and the compound obtained in Example 7 above were measured with addition of sodium, magnesium, and potassium. Measurements were conducted in 0.2 M Tris-perchlorate buffers at pH 7.5 containing various concentrations of sodium perchlorate and magnesium perchlorate using dimethylformamide (0.1%) as co-solvent when sodium and magnesium were added, and in 0.2 M Tris-hydrochloride buffers at pH 7.5 containing various concentrations of potassium chloride using dimethylformamide (0.1%) as co-solvent when potassium was added. The final concentrations of the compounds obtained in Example 5 and Example 7 were adjusted to be 3 μM. The compound obtained in Example 5 was measured at excitation wavelength of 492 nm and fluorescence wavelength of 513 nm and the compound obtained in Example 7 was measured at excitation wavelength of 504 nm and fluorescence wavelength of […].

[2] = Complex formation constant from fluorescence intensity change on addition of sodium; type: binding; conditions: 0.2 M Tris-perchlorate buffer pH 7.5, sodium perchlorate, DMF 0.1%, compound 3 μM; read-out: Complex formation constant Na^+
Protocol: as §1

[3] = Fluorescence quantum yield in aqueous solution of pH 9 containing NaCl; type: physicochemical; conditions: aqueous solution pH 9, dimethylformamide 0.03% co-solvent
[4] = Complex formation constant from fluorescence intensity change on addition of magnesium; type: binding; conditions: 0.2 M Tris-perchlorate buffer pH 7.5, magnesium perchlorate, DMF 0.1%, compound 3 μM
Protocol: as §1

[5] = Fluorescence quantum yield in aqueous solution of pH 9 containing CaCl2; type: physicochemical; conditions: aqueous solution pH 9, dimethylformamide 0.03% co-solvent
[6] = cited from earlier work

Cc1cc2c(cc1-c1c3ccc(=O)cc-3oc3cc(O)ccc13)OCCOCCOCCOCCO2 [Example 5]
Kd [1]: 250 µM
Kd [2]: 310 µM
Fluorescence quantum yield ([3]; 0.1 M Na^+ (NaCl)): 0.03
Fluorescence quantum yield ([3]; 3 M Na^+ (NaCl)): 0.043
Complex formation constant Mg^+ [4]: Unmeasurable
Fluorescence quantum yield ([5]; 0.1 M Ca^2+ (CaCl2)): 0.02
Fluorescence quantum yield ([5]; 3 M Ca^2+ (CaCl2)): 0.295

O=C1OC2(c3ccc(O)cc3Oc3cc(O)ccc32)c2ccccc21 [Fluorescein]
Fluorescence quantum yield ([6]; pH 3.4, OH group of the xanthene ring protonated): about 0.3

O=c1ccc2c(-c3ccccc3)c3ccc(O)cc3oc-2c1 [6-Hydroxy-9-phenylfluorone]
Fluorescence quantum yield relative to fluorescein [6]: lower fluorescence quantum yield
